According to paper PMC5427825:
These are yes or no findings as the source states them, for the method shown. Some results given as binding are weak or reduced against the parent protein; the word gives no strength.

Molecular target: T1, IRF3 (mouse (endogenous in MEFs)), P70671
T1 chain: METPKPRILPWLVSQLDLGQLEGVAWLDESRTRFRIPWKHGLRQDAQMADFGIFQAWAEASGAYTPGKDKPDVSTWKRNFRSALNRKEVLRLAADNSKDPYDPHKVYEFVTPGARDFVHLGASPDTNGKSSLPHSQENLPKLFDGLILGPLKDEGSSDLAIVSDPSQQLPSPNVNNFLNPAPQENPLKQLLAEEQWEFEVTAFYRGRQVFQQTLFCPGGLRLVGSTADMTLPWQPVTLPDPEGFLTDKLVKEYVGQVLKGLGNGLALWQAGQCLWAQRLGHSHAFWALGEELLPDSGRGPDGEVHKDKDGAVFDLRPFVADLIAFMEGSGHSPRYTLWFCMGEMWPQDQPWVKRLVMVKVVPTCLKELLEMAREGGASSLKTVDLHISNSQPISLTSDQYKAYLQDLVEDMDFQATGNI
Experiment: native gel or EMSA
Details: remark: other sources report otherwise

B1: IRF3, P70671 1-419 (protein)
chain: METPKPRILPWLVSQLDLGQLEGVAWLDESRTRFRIPWKHGLRQDAQMADFGIFQAWAEASGAYTPGKDKPDVSTWKRNFRSALNRKEVLRLAADNSKDPYDPHKVYEFVTPGARDFVHLGASPDTNGKSSLPHSQENLPKLFDGLILGPLKDEGSSDLAIVSDPSQQLPSPNVNNFLNPAPQENPLKQLLAEEQWEFEVTAFYRGRQVFQQTLFCPGGLRLVGSTADMTLPWQPVTLPDPEGFLTDKLVKEYVGQVLKGLGNGLALWQAGQCLWAQRLGHSHAFWALGEELLPDSGRGPDGEVHKDKDGAVFDLRPFVADLIAFMEGSGHSPRYTLWFCMGEMWPQDQPWVKRLVMVKVVPTCLKELLEMAREGGASSLKTVDLHISNSQPISLTSDQYKAYLQDLVEDMDFQATGNI
Q: With B1 as the binder, how does the binding read?
A: binds
